In publication PMC10060224 one finds binding data, which are given here for one molecule.

The target of this test is T1, Flag-tagged SENP6^C1030A (human) (UniProt Q9GZR1).
T1 sequence: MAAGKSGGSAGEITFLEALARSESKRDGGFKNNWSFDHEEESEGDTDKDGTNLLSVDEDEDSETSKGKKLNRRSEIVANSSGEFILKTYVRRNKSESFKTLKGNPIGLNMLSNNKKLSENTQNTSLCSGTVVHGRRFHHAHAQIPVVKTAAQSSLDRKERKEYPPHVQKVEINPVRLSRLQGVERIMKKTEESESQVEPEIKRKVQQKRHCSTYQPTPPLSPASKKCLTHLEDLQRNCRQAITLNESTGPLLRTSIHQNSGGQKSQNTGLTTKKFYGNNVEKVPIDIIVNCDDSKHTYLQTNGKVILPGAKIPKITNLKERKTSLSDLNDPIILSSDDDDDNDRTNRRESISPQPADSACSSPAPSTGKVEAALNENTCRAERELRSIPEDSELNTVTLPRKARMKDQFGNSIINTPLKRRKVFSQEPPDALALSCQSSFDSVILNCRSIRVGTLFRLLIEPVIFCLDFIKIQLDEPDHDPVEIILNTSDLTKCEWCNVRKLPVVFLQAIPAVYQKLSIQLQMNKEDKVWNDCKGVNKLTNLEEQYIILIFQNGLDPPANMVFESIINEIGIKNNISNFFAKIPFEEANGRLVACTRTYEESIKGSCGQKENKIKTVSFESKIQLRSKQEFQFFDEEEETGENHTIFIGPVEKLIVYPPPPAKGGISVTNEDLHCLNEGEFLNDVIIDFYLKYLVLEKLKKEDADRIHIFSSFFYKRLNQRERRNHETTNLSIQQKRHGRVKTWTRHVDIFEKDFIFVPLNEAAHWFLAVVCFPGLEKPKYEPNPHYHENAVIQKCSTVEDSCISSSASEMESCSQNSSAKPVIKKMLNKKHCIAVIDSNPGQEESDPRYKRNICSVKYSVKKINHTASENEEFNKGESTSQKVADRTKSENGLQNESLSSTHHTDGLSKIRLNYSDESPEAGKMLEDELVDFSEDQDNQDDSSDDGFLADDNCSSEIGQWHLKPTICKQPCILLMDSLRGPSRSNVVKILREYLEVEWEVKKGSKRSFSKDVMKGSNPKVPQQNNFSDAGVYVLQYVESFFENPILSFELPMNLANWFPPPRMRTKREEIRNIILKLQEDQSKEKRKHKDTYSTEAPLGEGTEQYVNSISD
In words: co-IP; ALT#1 cells transduced with vector control or Flag-SENP6^C1030A; lysis buffer 50 mM Tris pH 7.5, 120 mM NaCl, 1% NP-40, 5 mM EDTA; 500 ug lysate with IgG or anti-Flag M2 overnight at 4 °C, Protein G magnetic beads 2 h, three washes; western blot.

Results are given in words; binding and its absence hold for the method and conditions named. Binding seen in cells or lysates may run through a third protein. Sequences can lack the tags named with a protein.

B1: KDM2A (protein, UniProt Q9Y2K7 1-1162)
chain: MEPEEERIRYSQRLRGTMRRRYEDDGISDDEIEGKRTFDLEEKLHTNKYNANFVTFMEGKDFNVEYIQRGGLRDPLIFKNSDGLGIKMPDPDFTVNDVKMCVGSRRMVDVMDVNTQKGIEMTMAQWTRYYETPEEEREKLYNVISLEFSHTRLENMVQRPSTVDFIDWVDNMWPRHLKESQTESTNAILEMQYPKVQKYCLMSVRGCYTDFHVDFGGTSVWYHIHQGGKVFWLIPPTAHNLELYENWLLSGKQGDIFLGDRVSDCQRIELKQGYTFVIPSGWIHAVYTPTDTLVFGGNFLHSFNIPMQLKIYNIEDRTRVPNKFRYPFYYEMCWYVLERYVYCITNRSHLTKEFQKESLSMDLELNGLESGNGDEEAVDREPRRLSSRRSVLTSPVANGVNLDYDGLGKTCRSLPSLKKTLAGDSSSDCSRGSHNGQVWDPQCAPRKDRQVHLTHFELEGLRCLVDKLESLPLHKKCVPTGIEDEDALIADVKILLEELANSDPKLALTGVPIVQWPKRDKLKFPTRPKVRVPTIPITKPHTMKPAPRLTPVRPAAASPIVSGARRRRVRCRKCKACVQGECGVCHYCRDMKKFGGPGRMKQSCVLRQCLAPRLPHSVTCSLCGEVDQNEETQDFEKKLMECCICNEIVHPGCLQMDGEGLLNEELPNCWECPKCYQEDSSEKAQKRKMEESDEEAVQAKVLRPLRSCDEPLTPPPHSPTSMLQLIHDPVSPRGMVTRSSPGAGPSDHHSASRDERFKRRQLLRLQATERTMVREKENNPSGKKELSEVEKAKIRGSYLTVTLQRPTKELHGTSIVPKLQAITASSANLRHSPRVLVQHCPARTPQRGDEEGLGGEEEEEEEEEEEDDSAEEGGAARLNGRGSWAQDGDESWMQREVWMSVFRYLSRRELCECMRVCKTWYKWCCDKRLWTKIDLSRCKAIVPQALSGIIKRQPVSLDLSWTNISKKQLTWLVNRLPGLKDLLLAGCSWSAVSALSTSSCPLLRTLDLRWAVGIKDPQIRDLLTPPADKPGQDNRSKLRNMTDFRLAGLDITDATLRLIIRHMPLLSRLDLSHCSHLTDQSSNLLTAVGSSTRYSLTELNMAGCNKLTDQTLIYLRRIANVTLIDLRGCKQITRKACEHFISDLSINSLYCLSDEKLIQKIS
In the case of B1, the binding entry is on record as “no binding”.
